{"source": "PubChem BioAssay AID1259405 (NCATS, 2018)", "screen": "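Mouse-designed siRNAs used to find CHO productivity engineering targets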 (primary screen)", "cell system": "Chinese hamster CHO-K1 ovary cells with stable secreted eGFP expression", "knock-down reagent": "single siRNA against mouse genes, 0.8 pmol siRNA per well (2 µl of 400 nM stock)", "time to read-out": "3 days", "detection": "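Per-well intracellular GFP measured by laser scanning cytometry, plus viability from ATP luminescence, each relative to plate median of non-targeting control wells, in %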", "direction": "GFP, % of control: higher = more GFP per well, higher productivity; viability (ATP), % of control: higher = more viable cells (more ATP)", "active means": "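a knock-down is called active if GFP reaches 120% or more of non-targeting control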", "note": "The deposit covers about 50,000 reagents; this is an unselected part. Over the whole deposit, about 4,000 (8%) got an active call. 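Mouse siRNA library applied to hamster cells; one well for each siRNA.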 A number with no mark means an inactive call. Reagents against one gene are numbered here."}
{"Target gene": "Gabrb2", "reagent no.": 1, "GFP, % of control": 85.3, "viability (ATP), % of control": 97.1}
{"Target gene": "Gabrb2", "reagent no.": 2, "GFP, % of control": 57.8, "viability (ATP), % of control": 79}
{"Target gene": "Gabrb2", "reagent no.": 3, "GFP, % of control": 92.4, "viability (ATP), % of control": 112}
{"Target gene": "Gabrb2", "reagent no.": 4, "GFP, % of control": 62.4, "viability (ATP), % of control": 76.7}
{"Target gene": "Gabrb2", "reagent no.": 5, "GFP, % of control": 79.8, "viability (ATP), % of control": 95.1}
{"Target gene": "Gabrb2", "reagent no.": 6, "GFP, % of control": 118, "viability (ATP), % of control": 131}
{"Target gene": "Ints10", "reagent no.": 1, "GFP, % of control": 75.3, "viability (ATP), % of control": 42}
{"Target gene": "Ints10", "reagent no.": 2, "GFP, % of control": 76.1, "viability (ATP), % of control": 50}
{"Target gene": "Ints10", "reagent no.": 3, "GFP, % of control": 82.6, "viability (ATP), % of control": 103}
{"Target gene": "Ifi202b", "reagent no.": 1, "GFP, % of control": 107, "viability (ATP), % of control": 80.7}
{"Target gene": "Ifi202b", "reagent no.": 2, "GFP, % of control": 111, "viability (ATP), % of control": 92.4}
{"Target gene": "Ifi202b", "reagent no.": 3, "GFP, % of control": "120 (active)", "viability (ATP), % of control": 95.8}
{"Target gene": "Kcnj1", "reagent no.": 1, "GFP, % of control": 112, "viability (ATP), % of control": 91.4}
{"Target gene": "Kcnj1", "reagent no.": 2, "GFP, % of control": 67.2, "viability (ATP), % of control": 79.1}
{"Target gene": "Kcnj1", "reagent no.": 3, "GFP, % of control": 73.8, "viability (ATP), % of control": 88.4}
{"Target gene": "Alox12", "reagent no.": 1, "GFP, % of control": 91.8, "viability (ATP), % of control": 107}
{"Target gene": "Alox12", "reagent no.": 2, "GFP, % of control": 101, "viability (ATP), % of control": 103}
{"Target gene": "Alox12", "reagent no.": 3, "GFP, % of control": 37.5, "viability (ATP), % of control": 36.1}
{"Target gene": "Serinc2", "reagent no.": 1, "GFP, % of control": 96.5, "viability (ATP), % of control": 104}
{"Target gene": "Serinc2", "reagent no.": 2, "GFP, % of control": 72.7, "viability (ATP), % of control": 96.4}
{"Target gene": "Serinc2", "reagent no.": 3, "GFP, % of control": 78.2, "viability (ATP), % of control": 62.9}
{"Target gene": "Reep2", "reagent no.": 1, "GFP, % of control": 111, "viability (ATP), % of control": 89.2}
{"Target gene": "Reep2", "reagent no.": 2, "GFP, % of control": 61.4, "viability (ATP), % of control": 74}
{"Target gene": "Reep2", "reagent no.": 3, "GFP, % of control": 63.5, "viability (ATP), % of control": 87.4}
{"Target gene": "Rbm42", "reagent no.": 1, "GFP, % of control": 96.8, "viability (ATP), % of control": 62.5}
{"Target gene": "Rbm42", "reagent no.": 2, "GFP, % of control": 79.7, "viability (ATP), % of control": 66.5}
{"Target gene": "Rbm42", "reagent no.": 3, "GFP, % of control": 57.5, "viability (ATP), % of control": 72.8}
{"Target gene": "Folr1", "reagent no.": 1, "GFP, % of control": 76.8, "viability (ATP), % of control": 107}
{"Target gene": "Folr1", "reagent no.": 2, "GFP, % of control": 103, "viability (ATP), % of control": 87.6}
{"Target gene": "Folr1", "reagent no.": 3, "GFP, % of control": 101, "viability (ATP), % of control": 91.1}
{"Target gene": "Ccdc116", "reagent no.": 1, "GFP, % of control": 79.3, "viability (ATP), % of control": 44.8}
{"Target gene": "Ccdc116", "reagent no.": 2, "GFP, % of control": 104, "viability (ATP), % of control": 42.9}
{"Target gene": "Ccdc116", "reagent no.": 3, "GFP, % of control": 75.3, "viability (ATP), % of control": 74.5}
{"Target gene": "Adrb2", "reagent no.": 1, "GFP, % of control": 108, "viability (ATP), % of control": 95.3}
{"Target gene": "Adrb2", "reagent no.": 2, "GFP, % of control": 72.4, "viability (ATP), % of control": 59}
{"Target gene": "Adrb2", "reagent no.": 3, "GFP, % of control": 70.6, "viability (ATP), % of control": 78.7}
{"Target gene": "Shisa4", "reagent no.": 1, "GFP, % of control": 42.2, "viability (ATP), % of control": 60.6}
{"Target gene": "Shisa4", "reagent no.": 2, "GFP, % of control": "130 (active)", "viability (ATP), % of control": 93}
{"Target gene": "Shisa4", "reagent no.": 3, "GFP, % of control": 80, "viability (ATP), % of control": 110}
{"Target gene": "Cyld", "reagent no.": 1, "GFP, % of control": 65.4, "viability (ATP), % of control": 67.8}
{"Target gene": "Cyld", "reagent no.": 2, "GFP, % of control": 95.9, "viability (ATP), % of control": 63.4}
{"Target gene": "Cyld", "reagent no.": 3, "GFP, % of control": 96.7, "viability (ATP), % of control": 83.8}

Part of the list above, set out differently:
{"Target gene":"Shisa4","reagent no.":2,"GFP, % of control":"130 (active)","viability (ATP), % of control":93}
{"Target gene":"Shisa4","reagent no.":3,"GFP, % of control":80,"viability (ATP), % of control":110}
{"Target gene":"Cyld","reagent no.":1,"GFP, % of control":65.4,"viability (ATP), % of control":67.8}
